# Structures can show the parent of a compound that is named as a salt. About 130 (2.5%) of roughly 5,300 compounds showed an effect of 50% or more. The list shows a part of the results.
# Test system: M. mycetomatis strain mm55
# Conditions: primary screen, metabolic activity vs growth control; 96 h, 2 µM; inhibitor
row,SMILES,% viability [%]
1,"CCc1cccc(CC)c1NC(=O)CN(CC(=O)O)CC(=O)O [ONC0002329, etifenin]",55.77
2,"C/C(=C\C(=O)OCCCCCCCCC(=O)O)C[C@@H]1OC[C@H](C[C@@H]2O[C@H]2[C@@H](C)[C@H](C)O)[C@@H](O)[C@H]1O [ONC0001840, mupirocin]",91.16
3,"N#C/C(=C\c1ccc(O)c(O)c1)C(=O)NCCCc1ccccc1 [ONC0003345, ag555]",91.13
4,"CC1CCN=C(N)S1 (centres unmarked) [ONC0000196, aminomethyltransferase]",85.97
5,"Nc1cc(N2CCCCC2)nc(N)[n+]1[O-] [ONC0000367, minoxidil]",72.4
6,"C=CCN1CC[C@]23c4c5ccc(O)c4O[C@H]2[C@@H](OCCOCCOCCOCCOCCOCCOCCOC)CC[C@@]3(O)[C@H]1C5 [ONC0002095, naloxegol oxalate]",65.87
7,"C[N+](C)(C)CC(O)CC(=O)O (stereo not drawn) [ONC0003265, carnitine dl hydrochloride]",68.88
8,"C[C@]12CCC(=O)C=C1[C@@H]1C[C@@H]1[C@H]1[C@@H]3[C@@H]4C[C@@H]4[C@@]4(CCC(=O)O4)[C@@]3(C)CC[C@@H]12 [ONC0002429, drospirenone]",86.56
9,"O=C(Nc1cccc2cccnc12)c1ccc(N2C(=O)[C@@H]3[C@H](C2=O)[C@H]2C=C[C@@H]3C2)cc1 [ONC0001412, exoiwr1]",97.11
10,"COc1ccc2[nH]c3c(-c4cccc5ccccc45)nccc3c2c1 [ONC0003161, sp141]",97.8
11,"N=C(N)c1ccc(/N=N/Nc2ccc(C(=N)N)cc2)cc1 [ONC0004027, diminazene aceturate]",81.99
12,"CCN(CC)C(=O)N[C@H]1CC2c3cccc4[nH]cc(c34)CC2N(C)C1 (some centres unmarked) [ONC0002019, terguride]",81.88
13,"O=C(O)/C=C1\CCCc2ccccc2C1O (centres unmarked) [ONC0000167, ncs382]",89.17
14,"N#Cc1cc(CN2CCC(Nc3ncnc4sc(Cl)cc34)CC2)ccc1F [ONC0004391, prx08066 maleic acid]",100.9
15,"COc1cc(/C=C2\CCCN([C@@H](C)c3ccc(F)cc3)C2=O)ccc1-n1cnc(C)c1 [ONC0001004, e 2012]",90.83
16,"[H]/N=C(/N)c1ccc(NCc2nc3cc(C(=O)N(CCC(=O)O)c4ccccn4)ccc3n2C)cc1 [ONC0004940, bibr 953 dabigatran etexilate pradaxa]",81.22
17,"Cc1c(NC(=O)c2cc3c(s2)CCCC3)cccc1-c1cn(C)c(=O)c(Nc2ccc(C3C(=O)N(C)CCN3C)cc2)n1 (racemic) [ONC0000819, gdc0834 racemate]",65.58
18,"CCNCc1cc(C(C)(C)C)c(O)c(C(C)(C)C)c1 [ONC0003666, ly231617]",62.77
19,"Cc1ncc([N+](=O)[O-])n1CC(C)O (centres unmarked) [ONC0004221, secnidazole]",99.82
20,"C/C=C(/C(=C/C)c1ccc(O)cc1)c1ccc(O)cc1 [ONC0002147, dienestrol]",52.11
21,"CC1=C(/C=C/C(C)=C/C=C/C(C)=C/CO)C(C)(C)CCC1 [ONC0000539, retinol]",128.1

row,SMILES,% viability [%]
1,"OCCn1cc(-c2cnc3nnn(Cc4ccc5ncccc5c4)c3n2)cn1 [ONC0004674, pf04217903]",83.7
2,"C[C@H](O[C@H]1OCCN(Cc2n[nH]c(=O)[nH]2)[C@H]1c1ccc(F)cc1)c1cc(C(F)(F)F)cc(C(F)(F)F)c1 [ONC0004612, aprepitant mk0869]",34.22
3,"CCCCn1c(=O)c2[nH]c(C34CC5CC(CC3C5)C4)nc2n(CCCO)c1=O [ONC0000224, psb36]",53.31
4,"CC(C)C[C@H](NC(=O)N1CCCCCC1)C(=O)N[C@H](Cc1cn(C)c2ccccc12)C(=O)N[C@H](Cc1ccccn1)C(=O)O [ONC0001557, fr139317]",113.9
5,"O=C(O)c1ccc2nc(-c3cc(Cl)cc(Cl)c3)oc2c1 [ONC0001780, tafamidis]",89.74
6,"C=C[C@H]1CN2CC[C@H]1C[C@H]2[C@H](O)c1ccnc2ccccc12 [ONC0003192, cinchonidine]",97.82
7,"Cc1ccc(-n2nc(C(C)(C)C)cc2NC(=O)NCc2cc(F)ccc2Oc2ccc3c(cnn3CCO)c2)cc1 [ONC0004396, pexmetinib arry614]",98.41
8,"O=C(O)c1ccc2cc(-c3ccc(O)c(C45CC6CC(CC(C6)C4)C5)c3)ccc2c1 [ONC0003137, cd437]",104.9
9,"O=C(NC[C@H](O)CO)c1ccncc1Nc1ccc(I)cc1F [ONC0004877, pimasertib as703026]",86.19
10,"CCCCCCCC(=O)OCC(O)CO (centres unmarked) [ONC0005530, monoctanoin]",84.93
11,"Cc1ccc(-c2ncc[nH]2)cc1NC(=O)c1ccc(OCc2ccccn2)cc1 [ONC0000045, az12080282]",85.65
12,"C[C@@H]([C@@H](O)c1ccc(O)cc1)N1CCC(O)(c2ccccc2)CC1 [ONC0002879, cp 101606]",121.9
13,"O=C(Nc1ccc(S(=O)(=O)Nc2ccccc2Cl)c(Cl)c1)c1ccccn1 [ONC0004481, vu 0364439]",151
14,"Cc1ccc(C(=O)Nc2ccc(CN3CCN(C)CC3)c(C(F)(F)F)c2)cc1C#Cc1cnc2[nH]ncc2c1 [ONC0004398, gzd824 dimesylate]",83.54
15,"Cc1ccccc1C(C(=O)NC1CCCCC1)N(C(=O)Cn1ccnc1C)c1cccc(F)c1 (centres unmarked) [ONC0005188, agi5198]",113.7
16,"CC(=O)NCCCCCC(=O)O [ONC0003771, acexamicacid]",124.6
17,"Oc1ccnc2cc(Cl)ccc12 [ONC0002982, chloroxoquinoline]",96.22
18,"O=c1n(CCCN2CCN(c3cccc(Cl)c3)CC2)nc2ccccn12 [ONC0003101, trazodone hydrochloride]",79.17
19,"O=C(O)c1cc(=O)[nH]c(=O)[nH]1 [ONC0003933, orotic acid]",67.23
20,"Cc1onc(O)c1CC(N)C(=O)O (centres unmarked) [ONC0001795, ampars]",136.1
21,"CN1[C@@H]2CC[C@H]1C[C@@H](OC(=O)N1Cc3ccccc3NC1=O)C2 [ONC0001606, dau5884]",89.33

row,SMILES,% viability [%]
1,"CCOc1cc(C(=O)Nc2ccc(Cl)c(-c3nc4ccccc4[nH]3)c2)cc(OCC)c1OCC [ONC0001541, sant2]",100.1
2,"CO[C@H]1C([C@@]2(C)O[C@@H]2CC=C(C)C)[C@]2(CC[C@H]1OC(=O)NC(=O)CCl)CO2 (some centres unmarked) [ONC0005524, tnp470]",75.23
3,"CN(C)C(=O)n1nnnc1Cc1ccc(-c2ccccc2)cc1 [ONC0003593, ly2183240]",124.1
4,"CC1(C)S[C@@H]2[C@H](NC(=O)[C@H](N)c3ccccc3)C(=O)N2[C@H]1C(=O)O [ONC0004272, ampicillin sodium]",71.12
5,"CCCCC[C@H](O)/C=C/[C@H]1[C@H](O)CC(=O)[C@@H]1C/C=C\CCCC(=O)O [ONC0001297, dinoprostone]",104.7
6,"O=C1[C@@H]2[C@H]3CC[C@H](C3)[C@@H]2C(=O)N1C[C@@H]1CCCC[C@H]1CN1CCN(c2nsc3ccccc23)CC1 [ONC0004569, lurasidone hcl]",68.59
7,"CN(CCOP(=O)(O)O)C(=N)N [ONC0002764, 12hydroxyethyl1methylguanidine dihydrogen phosphate]",107.5
8,"Cc1nc2ccccn2c(=O)c1CCN1CCC(C(=O)c2ccc(F)cc2)CC1 [ONC0002968, pirenperone]",106.9
9,"CSc1nc2cc(Cl)c(Oc3cccc(Cl)c3Cl)cc2[nH]1 [ONC0005286, triclabendazole]",152
10,"Cc1ccc(=O)n(-c2ccc(O)cc2)c1 [ONC0004757, f351]",123
11,N#C/C(=C1/SCC(c2ccccc2Cl)S1)n1ccnc1 (centres unmarked) [Lanoconazole],3.92
12,"Nc1ccc(-c2ccc3ncc4ccc(=O)n(-c5cccc(C(F)(F)F)c5)c4c3c2)cn1 [ONC0003069, torin2]",68.61
13,"Fc1ccccc1CNCc1ccc(-c2ccnc3[nH]ccc23)cc1 [ONC0003624, oxa06]",62.01
14,"Cc1cnc(-c2ccccc2C(C)C)nc1NCc1ccc(-n2ccnn2)cc1 [ONC0001096, ml323]",85.22
15,"O=C(CCNNC(=O)c1ccncc1)NCc1ccccc1 [ONC0005392, nialamide]",93.5
16,"CC(C)(C)CC(C)(C)c1cc(Cc2cc(C(C)(C)CC(C)(C)C)cc(-n3nc4ccccc4n3)c2O)c(O)c(-n2nc3ccccc3n2)c1 [ONC0003873, bisoctrizole]",77.29
17,"FC(F)(F)c1cc(NC(=S)Nc2ccc(Br)cc2-c2nnn[nH]2)cc(C(F)(F)F)c1 [ONC0000117, ns11021]",92.01
18,"NC(=O)c1cnccn1 [ONC0003400, pyrazinamide]",98.18
19,"CO[C@@H]1[C@H](OC(=O)/C=C/C=C/C=C/C=C/C(=O)O)CC[C@]2(CO2)[C@H]1[C@@]1(C)O[C@@H]1CC=C(C)C [ONC0005501, fumagillin]",131.3
20,"CC[C@H](CC#N)OC(=O)N[C@@H](C)c1cccc(NC(=O)Nc2ccc(-c3cnco3)c(OC)c2)c1 [ONC0000952, avn944]",63.71

# A run of entries from further up:
row,SMILES,% viability [%]
15,"O=C(CCNNC(=O)c1ccncc1)NCc1ccccc1 [ONC0005392, nialamide]",93.5
16,"CC(C)(C)CC(C)(C)c1cc(Cc2cc(C(C)(C)CC(C)(C)C)cc(-n3nc4ccccc4n3)c2O)c(O)c(-n2nc3ccccc3n2)c1 [ONC0003873, bisoctrizole]",77.29
17,"FC(F)(F)c1cc(NC(=S)Nc2ccc(Br)cc2-c2nnn[nH]2)cc(C(F)(F)F)c1 [ONC0000117, ns11021]",92.01
